# Measurements from US20210130401A1 (THE REGENTS OF THE UNIVERSITY OF MICHIGAN, priority 2017, published 2021).
# Assay: general procedure: hybrid (solid and solution phase) peptide synthesis; 2-chlorotrityl chloride resin (ChemPep, 1 mmol/g); EDCl, HOAt, DIPEA (solution couplings)
# Conditions: for final purity (method not given): Waters ACQUITY UPLC, reverse-phase SunFire C18 5 um 4.6x150 mm, 0.1% TFA water/CH3CN; for isolated yield: whole synthesis, over 4 steps, scale of the general procedure 0.1 mmol, CF3COOH salt
# [1] = late stage modification step, TFA salt
Substance,"step yield (coupling step, TFA salt) [% yield]",step yield [1] [%],final purity (method not given) [1] [%],also measured
"(9H-fluoren-9-yl)methyl ((4R,7S,10S,13R)-10-ethyl-4-methyl-5,8,11,14-tetraoxo-7-(3-(3-((2,2,4,6,7-pentamethyl-2,3-dihydrobenzofuran-5-yl)sulfonyl)guanidino)propyl)-13-phenyl-6,9,12,15-tetraazaicosa-1,19-dien-4-yl)carbamate",80,,,
"(9H-fluoren-9-yl)methyl ((6R,9S,12S,15R)-6-(4-chlorophenyl)-9-ethyl-4,15-dimethyl-5,8,11,14-tetraoxo-12-(3-(3-((2,2,4,6,7-pentamethyl-2,3-dihydrobenzofuran-5-yl)sulfonyl)guanidino)propyl)-4,7,10,13-tetraazaoctadeca-1,17-dien-15-yl)carbamate",44,,,
"(9H-fluoren-9-yl)methyl ((6R,9S,12S,15R)-9-ethyl-4,15-dimethyl-5,8,11,14-tetraoxo-12-(3-(3-((2,2,4,6,7-pentamethyl-2,3-dihydrobenzofuran-5-yl)sulfonyl)guanidino)propyl)-6-phenyl-4,7,10,13-tetraazaoctadeca-1,17-dien-15-yl)carbamate",80,,,
"(9H-fluoren-9-yl)methyl ((6R,9S,12S,15R)-9-ethyl-6-(4-fluorophenyl)-4,15-dimethyl-5,8,11,14-tetraoxo-12-(3-(3-((2,2,4,6,7-pentamethyl-2,3-dihydrobenzofuran-5-yl)sulfonyl)guanidino)propyl)-4,7,10,13-tetraazaoctadeca-1,17-dien-15-yl)carbamate",45,,,
"(9H-fluoren-9-yl)methyl ((6R,9S,12S,15R)-9-ethyl-15-methyl-5,8,11,14-tetraoxo-12-(3-(3-((2,2,4,6,7-pentamethyl-2,3-dihydrobenzofuran-5-yl)sulfonyl)guanidino)propyl)-6-phenyl-4,7,10,13-tetraazaoctadeca-1,17-dien-15-yl)carbamate",60,,,
"(9H-fluoren-9-yl)methyl ((6R,9S,12S,15R)-9-ethyl-15-methyl-12-(3-((E)-2-methyl-3-((2,2,4,6,7-pentamethyl-2,3-dihydrobenzofuran-5-yl)sulfonyl)guanidino)propyl)-5,8,11,14-tetraoxo-6-phenyl-4,7,10,13-tetraazaoctadeca-1,17-dien-15-yl)carbamate",85,,,
"(R)—N-((6S,9S,12R)-9-ethyl-1-imino-14-methyl-7,10,13-trioxo-1-(2,2,4,6,7-pentamethyl-2,3-dihydrobenzofuran-5-sulfonamido)-12-phenyl-2,8,11,14-tetraazaheptadec-16-en-6-yl)-2-isobutyramido-2-methylpent-4-enamide",45,,,
"(R)—N-((6S,9S,12R)-9-ethyl-12-(4-fluorophenyl)-1-imino-14-methyl-7,10,13-trioxo-1-(2,2,4,6,7-pentamethyl-2,3-dihydrobenzofuran-5-sulfonamido)-2,8,11,14-tetraazaheptadec-16-en-6-yl)-2-isobutyramido-2-methylpent-4-enamide",58,,,
"(R)—N-((6S,9S,12R)-12-(4-chlorophenyl)-9-ethyl-1-imino-14-methyl-7,10,13-trioxo-1-(2,2,4,6,7-pentamethyl-2,3-dihydrobenzofuran-5-sulfonamido)-2,8,11,14-tetraazaheptadec-16-en-6-yl)-2-isobutyramido-2-methylpent-4-enamide",76,,,
"(R)—N-((8S,11S,14R,E)-11-ethyl-9,12,15-trioxo-3-(2,2,4,6,7-pentamethyl-2,3-dihydrobenzofuran-5-sulfonamido)-14-phenyl-2,4,10,13,16-pentaazanonadeca-2,18-dien-8-yl)-2-isobutyramido-2-methylpent-4-enamide",59,,,
"(R)—N-((8S,11S,14R,Z)-11-ethyl-3-(methylamino)-9,12,15-trioxo-14-phenyl-2,4,10,13,16-pentaazanonadeca-2,18-dien-8-yl)-2-isobutyramido-2-methylpent-4-enamide",44,,,
"N-(3-((5S,8R,13R)-5-ethyl-13-isobutyramido-13-methyl-3,6,9,14-tetraoxo-8-phenyl-1,4,7,10-tetraazacyclotetradecan-2-yl)propyl)acrylamide",,66,>98,
"N-(4-((2S,5S,8R,13R)-5-ethyl-13-isobutyramido-13-methyl-3,6,9,14-tetraoxo-8-phenyl-1,4,7,10-tetraazacyclotetradecan-2-yl)butyl)acrylamide",,51,>98,
"N-((3R,6S,9S,12R)-3-(2-chlorophenyl)-6-ethyl-9-(3-guanidinopropyl)-12-methyl-2,5,8,11-tetraoxo-1,4,7,10-tetraazacyclotetradecan-12-yl)isobutyramide",,,,isolated yield: 26%
"N-((3R,6S,9S,12R)-3-(4-chlorophenyl)-6-ethyl-9-(3-guanidinopropyl)-1,12-dimethyl-2,5,8,11-tetraoxo-1,4,7,10-tetraazacyclohexadecan-12-yl)isobutyramide",,,,"cyclisation yield (cyclisation step, over 3 steps from 36g, TFA salt): 11% yield over 3 steps"
"N-((3R,6S,9S,12R)-3-(4-chlorophenyl)-6-ethyl-9-(3-guanidinopropyl)-12-methyl-2,5,8,11-tetraoxo-1,4,7,10-tetraazacyclotetradecan-12-yl)isobutyramide",,,,isolated yield: 20%
"N-((3R,6S,9S,12R)-3-(cyclohexylmethyl)-6-ethyl-9-(3-(3-ethylguanidino)propyl)-12-methyl-2,5,8,11-tetraoxo-1,4,7,10-tetraazacyclotetradecan-12-yl)isobutyramide",,92,>98,
"N-((3R,6S,9S,12R)-3-(cyclohexylmethyl)-6-ethyl-9-(3-(hydrazinecarboximidamido)propyl)-12-methyl-2,5,8,11-tetraoxo-1,4,7,10-tetraazacyclotetradecan-12-yl)isobutyramide",,89,>98,
"N-((3R,6S,9S,12R)-3-(cyclohexylmethyl)-6-ethyl-9-(3-guanidinopropyl)-12-methyl-2,5,8,11-tetraoxo-1,4,7,10-tetraazacyclotetradecan-12-yl)isobutyramide",,,,isolated yield: 34%
"N-((3R,6S,9S,12R)-3-(cyclohexylmethyl)-6-ethyl-12-methyl-2,5,8,11-tetraoxo-9-(3-(3-propylguanidino)propyl)-1,4,7,10-tetraazacyclotetradecan-12-yl)isobutyramide",,80,>98,
"N-((3R,6S,9S,12R)-3-(cyclohexylmethyl)-6-ethyl-12-methyl-2,5,8,11-tetraoxo-9-(3-((1,4,5,6-tetrahydropyrimidin-2-yl)amino)propyl)-1,4,7,10-tetraazacyclotetradecan-12-yl)isobutyramide",,50,>98,
"N-((3R,6S,9S,12R)-3-(cyclohexylmethyl)-6-ethyl-12-methyl-9-(3-(3-nitroguanidino)propyl)-2,5,8,11-tetraoxo-1,4,7,10-tetraazacyclotetradecan-12-yl)isobutyramide",,93,>98,
